Results are given in words; binding and its absence hold for the method and conditions named. Binding seen in cells or lysates may run through a third protein. Some binding calls cover weakened binding; strength is not graded here.
Molecular target: transcription factor Sp1 (human (endogenous in U2OS)) (UniProt P08047)
Experiment: co-IP; U2OS wt and U2OS IFI16-/- cell lysates (SDS lysis buffer, diluted 1:10 in dilution buffer); precipitation with 1.5 µg anti-Sp1 antibody or rabbit IgG1 control overnight at 4°C, protein G agarose with salmon sperm DNA; washes with low salt, high salt (500 mM NaCl), LiCl buffers and TE; Western blot

Amino acid sequences for entries named in this document (tags omitted).
UniProt P08047: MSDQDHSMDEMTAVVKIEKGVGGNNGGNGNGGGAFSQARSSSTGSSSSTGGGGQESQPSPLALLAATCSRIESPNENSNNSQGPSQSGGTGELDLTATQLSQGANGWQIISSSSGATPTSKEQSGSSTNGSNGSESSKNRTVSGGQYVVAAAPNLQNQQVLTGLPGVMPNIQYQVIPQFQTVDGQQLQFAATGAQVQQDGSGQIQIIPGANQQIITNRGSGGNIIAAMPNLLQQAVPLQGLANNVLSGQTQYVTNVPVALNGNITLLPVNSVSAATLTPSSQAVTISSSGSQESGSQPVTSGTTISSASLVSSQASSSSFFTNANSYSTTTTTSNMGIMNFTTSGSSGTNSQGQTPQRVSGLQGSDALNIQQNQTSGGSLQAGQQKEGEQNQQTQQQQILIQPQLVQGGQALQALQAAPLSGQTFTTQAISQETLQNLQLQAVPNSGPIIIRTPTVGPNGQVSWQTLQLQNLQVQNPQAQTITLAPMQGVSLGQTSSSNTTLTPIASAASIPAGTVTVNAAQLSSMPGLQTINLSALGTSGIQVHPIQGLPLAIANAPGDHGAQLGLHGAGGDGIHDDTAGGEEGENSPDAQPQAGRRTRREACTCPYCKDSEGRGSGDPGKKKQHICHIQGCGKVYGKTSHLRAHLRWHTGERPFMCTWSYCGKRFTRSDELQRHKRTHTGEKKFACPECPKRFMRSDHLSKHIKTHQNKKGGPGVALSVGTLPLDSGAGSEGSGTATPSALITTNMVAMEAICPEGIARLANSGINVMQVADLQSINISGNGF
UniProt Q16666: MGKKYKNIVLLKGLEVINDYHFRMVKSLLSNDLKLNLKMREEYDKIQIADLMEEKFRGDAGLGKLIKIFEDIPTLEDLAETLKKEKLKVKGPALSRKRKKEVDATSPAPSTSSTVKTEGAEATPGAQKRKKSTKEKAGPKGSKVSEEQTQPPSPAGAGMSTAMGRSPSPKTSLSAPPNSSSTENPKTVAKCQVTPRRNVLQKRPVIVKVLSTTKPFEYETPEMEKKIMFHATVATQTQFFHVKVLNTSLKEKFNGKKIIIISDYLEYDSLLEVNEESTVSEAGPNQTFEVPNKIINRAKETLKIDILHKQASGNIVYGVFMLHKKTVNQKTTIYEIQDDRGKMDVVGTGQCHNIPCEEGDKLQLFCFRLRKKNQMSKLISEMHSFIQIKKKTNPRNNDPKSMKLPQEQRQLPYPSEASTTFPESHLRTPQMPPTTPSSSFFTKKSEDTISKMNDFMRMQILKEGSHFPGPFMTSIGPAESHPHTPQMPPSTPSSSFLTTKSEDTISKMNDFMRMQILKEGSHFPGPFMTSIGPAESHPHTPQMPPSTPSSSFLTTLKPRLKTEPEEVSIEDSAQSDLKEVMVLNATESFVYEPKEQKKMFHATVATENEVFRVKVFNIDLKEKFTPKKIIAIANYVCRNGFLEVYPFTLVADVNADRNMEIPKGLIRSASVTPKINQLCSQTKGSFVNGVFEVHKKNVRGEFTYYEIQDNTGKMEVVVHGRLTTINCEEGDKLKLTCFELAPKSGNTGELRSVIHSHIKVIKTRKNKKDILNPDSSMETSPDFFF

With “interferon-γ inducible factor 16 (IFI16) (from UniProt Q16666 1-785)” the binding was “binds”.
